Assay [1] concerns the target STAT3 (endogenous, SNU-216 cells) (human (endogenous in SNU-216)) (UniProt P40763). Description: co-IP; endogenous proteins in SNU-216 cells; 4x10^7 cells lysed in 500 uL lysis buffer; pre-cleared lysate with antibody at 4 °C for 3 h, protein A/G agarose beads at 4 °C overnight; beads washed with PBS 10 times; immunoblot.
For assay [2], the target named is HA-tagged STAT3 (human) (UniProt P40763). As to the kind of experiment: co-IP; HEK293T transiently transfected with HA-tagged STAT3, Flag-tagged SRF, individually or both; equivalent lysates immunoprecipitated with anti-HA or anti-Flag antibody and immunoblotted.

Amino acid sequences for entries named in this document (tags omitted).
UniProt P40763: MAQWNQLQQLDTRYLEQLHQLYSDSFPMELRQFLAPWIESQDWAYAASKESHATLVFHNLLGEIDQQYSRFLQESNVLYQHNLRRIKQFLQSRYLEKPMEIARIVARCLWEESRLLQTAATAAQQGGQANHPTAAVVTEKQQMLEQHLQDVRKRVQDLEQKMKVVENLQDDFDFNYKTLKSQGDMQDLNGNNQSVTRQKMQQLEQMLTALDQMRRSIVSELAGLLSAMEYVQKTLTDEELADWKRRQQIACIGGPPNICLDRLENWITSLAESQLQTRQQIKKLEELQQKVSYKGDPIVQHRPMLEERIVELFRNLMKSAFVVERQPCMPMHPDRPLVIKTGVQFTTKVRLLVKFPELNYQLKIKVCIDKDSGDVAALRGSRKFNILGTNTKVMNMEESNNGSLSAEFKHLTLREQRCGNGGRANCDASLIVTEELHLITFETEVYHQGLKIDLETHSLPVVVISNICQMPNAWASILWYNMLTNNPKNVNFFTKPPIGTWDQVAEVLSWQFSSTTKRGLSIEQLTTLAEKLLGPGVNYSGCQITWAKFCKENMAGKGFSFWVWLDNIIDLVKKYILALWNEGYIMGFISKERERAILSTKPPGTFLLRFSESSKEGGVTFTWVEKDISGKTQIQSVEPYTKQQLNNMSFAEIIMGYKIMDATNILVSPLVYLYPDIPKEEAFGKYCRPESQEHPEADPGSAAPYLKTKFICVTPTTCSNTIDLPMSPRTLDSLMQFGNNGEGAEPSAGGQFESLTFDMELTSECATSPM

Results are given in words; binding and its absence hold for the method and conditions named. In cells and extracts the contact can be indirect. Some entries that bind do so weakly or less than the wild type. For some assays here: Where a sequence is shown, tags or fusion partners need not be part of it.

B1: SRF (endogenous, SNU-216 cells) (protein, UniProt P11831 1-508)
chain: MLPTQAGAAAALGRGSALGGSLNRTPTGRPGGGGGTRGANGGRVPGNGAGLGPGRLEREAAAAAATTPAPTAGALYSGSEGDSESGEEEELGAERRGLKRSLSEMEIGMVVGGPEASAAATGGYGPVSGAVSGAKPGKKTRGRVKIKMEFIDNKLRRYTTFSKRKTGIMKKAYELSTLTGTQVLLLVASETGHVYTFATRKLQPMITSETGKALIQTCLNSPDSPPRSDPTTDQRMSATGFEETDLTYQVSESDSSGETKDTLKPAFTVTNLPGTTSTIQTAPSTSTTMQVSSGPSFPITNYLAPVSASVSPSAVSSANGTVLKSTGSGPVSSGGLMQLPTSFTLMPGGAVAQQVPVQAIQVHQAPQQASPSRDSSTDLTQTSSSGTVTLPATIMTSSVPTTVGGHMMYPSPHAVMYAPTSGLGDGSLTVLNAFSQAPSTMQVSHSQVQEPGGVPQVFLTASSGTVQIPVSAVQLHQMAVIGQQAGSSSNLTELQVVNLDTAHSTKSE
Consider B1, for which, in assay [1], the binding entry is listed as “binds”.

B2: Flag-tagged SRF (protein, UniProt P11831 1-508)
chain: B1 chain
Take B2: in assay [2], the binding entry is given as “binds”.

The values above are taken from PMC11904182.
